Data as given in patent US20240415836A1, “COMPOSITION COMPRISING TWO ENZYME INHIBITORS TARGETING TWO DIFFERENT CONFORMATIONS OF AN ENZYME” (University College Dublin, priority 2018, published 2024).
At least one structure is not confirmed: it was looked up by name or label, or the drawing left a doubt. Some entries share one result that the patent states for a list of compounds.

Tests used:
[1] = tested on: ERK signaling, resistant (BRAF^V600E/WT/NRAS^Q61K/WT) M249 cells; assay: ERK signaling (ppERK) in vemurafenib resistant M249 cells, MESOSCALE system, 24 hr; assay type: cell-based
[2] = tested on: ERK signaling, MEL-JUSO cells; assay: ERK signaling (ppERK) in growing MEL-JUSO cells, MESOSCALE system, 24 hr; assay type: cell-based; settings: doses up to 50 μM
Procedure: Cell lines were either purchased from ATCC (SKMEL2, A375) or DSMZ (MEL-JSUO). […] All cells were grown in RPMI (Gibco) supplemented with 2 mM L-glutamine and 10% (v/v) fetal bovine serum in a humidified atmosphere of 5% CO2 at 37° C. Cells were seeded in 12-well plates (Greiner CELLSTAR dishes) at the density of 10^5 cells per well. After reaching sufficient confluency, cells were treated with different concentrations of inhibitors and DMSO as control. To prepare the protein lysates, plates were transferred on ice, washed with ice-cold PBS and harvested by scraping in specific ELISA buffers as indicated below.
Briefly, following the addition of complete MSD lysis buffer and scraping the cells from the surface of the dish, the cellular debris was removed from the lysate by centrifugation at 10000×g at 4° C. for 10 min. Protein concentration was determined using the BCA test according to the manufacturer's instructions (Pierce™ BCA Protein Assay Kit).

[3] = tested on: RAF; settings: literature values; cited from earlier work

CCCS(=O)(=O)Nc1ccc(F)c(C(=O)c2c[nH]c3ncc(-c4ccc(Cl)cc4)cc23)c1F [vemurafenib]
ppERK level after treatment ([1]; 3 μM): reaches the value equal to the basal level in the parental cells | change of ppERK level on increasing the dose ([1]; doses from 3 to 10 μM): does not substantially decrease the ppERK level | ppERK response [2]: could only activate ppERK

N#Cc1c(Oc2ccc(F)c(NC(=O)Cc3cccc(C(F)(F)F)c3)c2)ccc2nc(NC(=O)C3CC3)sc12 [TAK-632]
1/koff [3]: ≥ 2 h
